Measurements reported in the supplement of paper PMC10849652.
Some of the results follow.

Sequences of proteins named here, by UniProt entry; tags and fusion partners are left off. A change or cut given only in a name is not applied to a line headed by its entry.
UniProt Q8NB91: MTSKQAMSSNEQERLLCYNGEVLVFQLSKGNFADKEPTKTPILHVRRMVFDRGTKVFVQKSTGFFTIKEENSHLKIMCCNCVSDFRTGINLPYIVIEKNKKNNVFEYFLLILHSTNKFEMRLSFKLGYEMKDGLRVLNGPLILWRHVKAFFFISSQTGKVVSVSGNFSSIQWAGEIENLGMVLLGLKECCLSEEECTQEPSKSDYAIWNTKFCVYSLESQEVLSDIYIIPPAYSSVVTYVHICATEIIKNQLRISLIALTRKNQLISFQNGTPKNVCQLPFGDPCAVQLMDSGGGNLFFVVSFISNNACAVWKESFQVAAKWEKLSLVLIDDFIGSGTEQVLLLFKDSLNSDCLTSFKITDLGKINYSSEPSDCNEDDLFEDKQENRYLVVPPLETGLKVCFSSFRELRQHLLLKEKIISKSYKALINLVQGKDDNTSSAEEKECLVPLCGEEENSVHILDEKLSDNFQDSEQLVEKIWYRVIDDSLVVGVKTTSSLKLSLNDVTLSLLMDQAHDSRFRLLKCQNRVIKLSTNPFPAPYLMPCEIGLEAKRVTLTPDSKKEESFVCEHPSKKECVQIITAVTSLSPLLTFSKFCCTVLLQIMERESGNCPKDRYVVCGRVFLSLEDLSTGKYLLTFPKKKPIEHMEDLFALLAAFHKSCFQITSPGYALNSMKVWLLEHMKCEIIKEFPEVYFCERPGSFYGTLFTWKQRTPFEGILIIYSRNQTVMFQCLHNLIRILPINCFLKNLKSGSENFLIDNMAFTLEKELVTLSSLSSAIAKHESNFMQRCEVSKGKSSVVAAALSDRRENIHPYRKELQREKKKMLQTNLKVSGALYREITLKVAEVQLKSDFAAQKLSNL
UniProt O95466, whole entry, looked up: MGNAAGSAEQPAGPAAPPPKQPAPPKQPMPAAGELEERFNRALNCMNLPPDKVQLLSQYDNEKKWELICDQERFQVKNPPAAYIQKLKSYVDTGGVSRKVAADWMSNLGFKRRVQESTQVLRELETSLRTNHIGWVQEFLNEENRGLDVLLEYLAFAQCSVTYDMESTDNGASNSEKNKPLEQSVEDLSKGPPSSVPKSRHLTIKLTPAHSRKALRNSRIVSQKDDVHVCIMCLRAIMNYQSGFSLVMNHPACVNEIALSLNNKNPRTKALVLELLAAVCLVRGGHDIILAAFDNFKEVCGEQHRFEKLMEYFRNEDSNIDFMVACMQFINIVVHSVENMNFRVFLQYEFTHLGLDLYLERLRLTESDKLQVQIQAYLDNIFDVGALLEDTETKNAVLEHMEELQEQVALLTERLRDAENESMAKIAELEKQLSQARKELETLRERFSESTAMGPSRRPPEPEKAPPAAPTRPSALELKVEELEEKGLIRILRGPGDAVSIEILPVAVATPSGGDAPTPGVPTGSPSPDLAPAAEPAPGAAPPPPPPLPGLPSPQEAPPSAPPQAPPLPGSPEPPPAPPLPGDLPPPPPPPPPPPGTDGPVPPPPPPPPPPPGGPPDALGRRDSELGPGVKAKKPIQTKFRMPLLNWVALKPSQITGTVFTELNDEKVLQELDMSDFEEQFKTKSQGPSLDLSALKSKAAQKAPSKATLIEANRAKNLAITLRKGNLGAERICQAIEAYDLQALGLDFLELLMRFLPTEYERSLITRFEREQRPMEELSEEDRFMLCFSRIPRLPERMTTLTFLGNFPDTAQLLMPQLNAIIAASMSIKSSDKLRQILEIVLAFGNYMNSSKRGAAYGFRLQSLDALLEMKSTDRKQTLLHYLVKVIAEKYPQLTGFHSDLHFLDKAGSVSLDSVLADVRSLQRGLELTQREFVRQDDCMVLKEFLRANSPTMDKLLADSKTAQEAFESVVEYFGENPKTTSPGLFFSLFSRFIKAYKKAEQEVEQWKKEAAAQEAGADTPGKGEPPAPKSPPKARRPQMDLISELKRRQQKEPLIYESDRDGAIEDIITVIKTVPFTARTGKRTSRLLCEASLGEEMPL
UniProt Q86WN1: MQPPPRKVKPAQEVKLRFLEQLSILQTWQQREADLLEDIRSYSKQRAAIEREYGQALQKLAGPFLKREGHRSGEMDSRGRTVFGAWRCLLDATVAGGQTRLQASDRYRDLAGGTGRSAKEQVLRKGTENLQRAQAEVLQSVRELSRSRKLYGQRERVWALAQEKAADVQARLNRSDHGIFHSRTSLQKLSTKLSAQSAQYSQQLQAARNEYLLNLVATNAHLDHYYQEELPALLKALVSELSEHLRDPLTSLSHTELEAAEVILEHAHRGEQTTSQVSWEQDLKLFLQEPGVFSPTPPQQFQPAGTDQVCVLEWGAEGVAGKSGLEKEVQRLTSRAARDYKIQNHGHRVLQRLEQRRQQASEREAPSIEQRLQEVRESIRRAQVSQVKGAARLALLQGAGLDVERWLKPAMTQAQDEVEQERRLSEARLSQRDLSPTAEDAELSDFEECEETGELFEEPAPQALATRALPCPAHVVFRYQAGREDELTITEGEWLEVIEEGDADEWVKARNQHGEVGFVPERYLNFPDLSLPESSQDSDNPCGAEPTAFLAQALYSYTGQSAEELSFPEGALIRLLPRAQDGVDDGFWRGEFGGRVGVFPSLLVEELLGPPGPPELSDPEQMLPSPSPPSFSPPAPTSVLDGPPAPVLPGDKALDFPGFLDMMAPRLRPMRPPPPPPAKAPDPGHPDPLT
UniProt Q14192: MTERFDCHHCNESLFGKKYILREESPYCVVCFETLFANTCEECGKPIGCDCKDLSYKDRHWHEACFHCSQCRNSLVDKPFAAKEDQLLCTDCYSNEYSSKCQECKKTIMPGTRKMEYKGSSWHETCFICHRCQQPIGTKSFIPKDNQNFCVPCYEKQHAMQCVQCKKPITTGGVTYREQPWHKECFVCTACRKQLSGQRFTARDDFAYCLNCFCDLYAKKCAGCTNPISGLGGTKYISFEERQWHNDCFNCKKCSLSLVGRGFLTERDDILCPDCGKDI
UniProt Q9Y680: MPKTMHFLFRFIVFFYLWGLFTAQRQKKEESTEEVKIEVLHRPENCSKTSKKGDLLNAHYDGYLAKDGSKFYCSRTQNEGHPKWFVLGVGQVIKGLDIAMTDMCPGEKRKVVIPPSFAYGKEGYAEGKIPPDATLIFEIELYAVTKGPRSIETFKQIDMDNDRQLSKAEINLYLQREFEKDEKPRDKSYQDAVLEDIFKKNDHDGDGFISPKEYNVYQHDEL
UniProt Q658Y4: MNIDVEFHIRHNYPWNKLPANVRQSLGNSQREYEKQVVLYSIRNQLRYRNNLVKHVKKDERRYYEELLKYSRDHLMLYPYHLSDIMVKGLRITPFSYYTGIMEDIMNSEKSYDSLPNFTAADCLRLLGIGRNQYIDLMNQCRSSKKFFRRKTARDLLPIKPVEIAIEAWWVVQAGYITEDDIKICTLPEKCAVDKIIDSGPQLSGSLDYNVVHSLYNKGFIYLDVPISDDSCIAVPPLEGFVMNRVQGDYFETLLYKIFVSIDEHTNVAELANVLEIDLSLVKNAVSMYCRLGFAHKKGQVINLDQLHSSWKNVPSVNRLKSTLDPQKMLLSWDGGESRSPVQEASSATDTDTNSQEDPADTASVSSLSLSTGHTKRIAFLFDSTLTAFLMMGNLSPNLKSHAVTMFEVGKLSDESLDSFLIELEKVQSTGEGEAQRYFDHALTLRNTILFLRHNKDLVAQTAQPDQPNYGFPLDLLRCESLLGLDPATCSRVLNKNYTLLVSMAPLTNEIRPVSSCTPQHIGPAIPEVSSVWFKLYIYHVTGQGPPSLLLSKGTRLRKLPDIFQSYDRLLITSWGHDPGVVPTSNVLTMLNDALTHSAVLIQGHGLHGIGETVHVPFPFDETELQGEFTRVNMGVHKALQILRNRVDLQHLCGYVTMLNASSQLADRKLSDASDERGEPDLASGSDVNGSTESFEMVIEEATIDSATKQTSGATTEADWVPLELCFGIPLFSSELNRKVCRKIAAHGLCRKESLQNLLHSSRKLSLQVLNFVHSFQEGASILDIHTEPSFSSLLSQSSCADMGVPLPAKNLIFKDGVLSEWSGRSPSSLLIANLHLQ
UniProt P26885: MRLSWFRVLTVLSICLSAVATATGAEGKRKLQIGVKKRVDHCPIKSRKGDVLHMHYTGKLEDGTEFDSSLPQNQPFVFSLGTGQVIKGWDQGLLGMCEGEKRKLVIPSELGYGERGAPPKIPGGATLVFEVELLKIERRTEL
UniProt A6NHQ2: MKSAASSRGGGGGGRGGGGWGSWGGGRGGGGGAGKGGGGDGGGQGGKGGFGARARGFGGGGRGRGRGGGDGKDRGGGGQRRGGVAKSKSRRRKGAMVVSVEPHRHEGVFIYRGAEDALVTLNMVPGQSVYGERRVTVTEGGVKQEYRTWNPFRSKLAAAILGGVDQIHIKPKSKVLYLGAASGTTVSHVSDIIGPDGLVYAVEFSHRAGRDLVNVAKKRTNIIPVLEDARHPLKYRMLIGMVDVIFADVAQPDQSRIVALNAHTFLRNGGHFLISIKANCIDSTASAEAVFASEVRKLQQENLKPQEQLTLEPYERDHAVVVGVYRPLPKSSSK
UniProt Q0JRZ9: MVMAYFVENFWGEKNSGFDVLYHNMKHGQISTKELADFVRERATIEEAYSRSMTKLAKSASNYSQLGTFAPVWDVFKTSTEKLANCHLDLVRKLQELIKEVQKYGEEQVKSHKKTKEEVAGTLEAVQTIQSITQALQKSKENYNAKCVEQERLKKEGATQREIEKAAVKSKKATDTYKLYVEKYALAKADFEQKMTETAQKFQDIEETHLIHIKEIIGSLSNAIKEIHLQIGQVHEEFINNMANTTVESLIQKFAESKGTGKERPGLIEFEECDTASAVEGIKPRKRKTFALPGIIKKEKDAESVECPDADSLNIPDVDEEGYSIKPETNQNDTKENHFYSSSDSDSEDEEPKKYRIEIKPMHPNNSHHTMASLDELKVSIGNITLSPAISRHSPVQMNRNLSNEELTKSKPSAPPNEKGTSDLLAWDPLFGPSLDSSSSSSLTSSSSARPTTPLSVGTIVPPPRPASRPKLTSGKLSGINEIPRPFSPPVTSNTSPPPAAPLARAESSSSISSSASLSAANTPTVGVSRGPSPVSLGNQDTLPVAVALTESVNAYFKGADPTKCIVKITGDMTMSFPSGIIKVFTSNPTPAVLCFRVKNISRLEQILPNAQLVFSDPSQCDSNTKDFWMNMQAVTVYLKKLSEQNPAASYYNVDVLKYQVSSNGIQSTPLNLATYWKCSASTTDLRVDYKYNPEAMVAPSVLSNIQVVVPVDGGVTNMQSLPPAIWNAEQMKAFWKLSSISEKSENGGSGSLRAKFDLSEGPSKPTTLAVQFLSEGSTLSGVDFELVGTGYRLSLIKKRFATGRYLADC
UniProt Q86UX7, whole entry, looked up: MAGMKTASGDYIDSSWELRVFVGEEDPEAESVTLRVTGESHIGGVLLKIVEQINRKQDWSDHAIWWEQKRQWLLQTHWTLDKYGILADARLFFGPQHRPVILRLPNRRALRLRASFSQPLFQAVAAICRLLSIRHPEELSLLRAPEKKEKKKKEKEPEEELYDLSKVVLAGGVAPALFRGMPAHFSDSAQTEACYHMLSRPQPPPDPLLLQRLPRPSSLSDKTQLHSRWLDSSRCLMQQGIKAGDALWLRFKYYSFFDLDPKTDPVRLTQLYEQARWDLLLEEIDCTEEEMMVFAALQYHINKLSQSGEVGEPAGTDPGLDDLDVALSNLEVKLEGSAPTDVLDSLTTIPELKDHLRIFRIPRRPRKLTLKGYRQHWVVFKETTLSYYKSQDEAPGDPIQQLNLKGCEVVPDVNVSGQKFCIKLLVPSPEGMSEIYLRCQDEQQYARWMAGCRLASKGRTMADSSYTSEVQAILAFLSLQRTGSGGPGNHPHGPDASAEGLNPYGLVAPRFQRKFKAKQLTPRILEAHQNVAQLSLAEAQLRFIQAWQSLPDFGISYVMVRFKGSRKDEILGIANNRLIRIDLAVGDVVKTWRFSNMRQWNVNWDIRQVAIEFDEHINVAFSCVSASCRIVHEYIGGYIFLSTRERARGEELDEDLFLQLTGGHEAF
UniProt O43427: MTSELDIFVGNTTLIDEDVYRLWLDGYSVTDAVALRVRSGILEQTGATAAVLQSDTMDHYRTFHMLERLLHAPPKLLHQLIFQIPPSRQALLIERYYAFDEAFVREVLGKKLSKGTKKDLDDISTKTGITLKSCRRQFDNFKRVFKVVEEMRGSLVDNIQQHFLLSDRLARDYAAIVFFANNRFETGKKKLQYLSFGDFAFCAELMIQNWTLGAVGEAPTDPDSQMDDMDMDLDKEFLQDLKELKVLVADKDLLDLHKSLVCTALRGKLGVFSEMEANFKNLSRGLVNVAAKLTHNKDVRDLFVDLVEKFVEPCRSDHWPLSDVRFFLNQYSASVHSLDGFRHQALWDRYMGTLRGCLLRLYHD

What was measured:
Assay in all cases: log2 fold change, soluble protein after heating vs DMSO (PISA); higher = thermal stabilisation; K562 lysate, 10 uM; active = over 0.2 and 3.5 SD of the protein, either way, in both replicates (recomputed)
[1] = compound: NCC(=O)Nc1ccc(-n2nc(C(F)(F)F)cc2-c2ccc3c(ccc4ccccc43)c2)cc1
In short: (§1)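 K562 pellets were dounce-homogenised in PBS pH 7.4 containing 1 mM MgCl2, and the crude extract, at 1 mg/mL protein, was exposed to 10 μM compound for 30 min. Aliquots were heated for 3 min across 48°C-58°C, pooled, brought to 0.5% NP-40 at 4°C and spun at 21,000xg for 90 min, with the supernatant taken as soluble protein. TMTpro 16plex LC-MS/MS with equalised channel sums quantified that protein. Values are log-two fold changes in thermal stability relative to solvent controls, taken from duplicates.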

vorinostat = compound: O=C(CCCCCCC(=O)Nc1ccccc1)NO [vorinostat]
In short: as §1

silmitasertib = compound: O=C(O)c1ccc2c(c1)nc(Nc1cccc(Cl)c1)c1ccncc12 [silmitasertib]
In short: as §1

[2] = compound: O=C1NC(=O)C(c2cnc3ccccn23)=C1c1cn2c3c(cc(F)cc13)CN(C(=O)N1CCCCC1)CC2
In short: as §1

entospletinib = compound: c1cn2cc(-c3ccc4cn[nH]c4c3)nc(Nc3ccc(N4CCOCC4)cc3)c2n1 [entospletinib]
In short: as §1

Measured: log2 fold change

FLII (UniProt Q13045)
inactive: [1] -0.032 | vorinostat -0.145 | silmitasertib 0.026 | [2] -0.031 | entospletinib 0.01

FANCB (UniProt Q8NB91)
inactive: [1] 0.023 | vorinostat -0.153 | silmitasertib 0.091 | [2] 0.055 | entospletinib -0.016

FCHO1 (UniProt O14526)
inactive: [1] 0.041 | silmitasertib 0.03 | [2] -0.006 | entospletinib 0.024
active: vorinostat -0.286

FMNL1 isoform 3 (UniProt O95466)
active: vorinostat -0.292
inactive: [1] 0.051 | silmitasertib -0.01 | [2] 0.071 | entospletinib -0.066

FCHSD1 (UniProt Q86WN1)
inactive: [1] -0.14 | vorinostat 0.021 | silmitasertib 0.008 | [2] 0.063 | entospletinib 0.027

FIGNL1 (UniProt Q6PIW4)
active: vorinostat -0.484
inactive: [1] -0.016 | silmitasertib 0.045 | [2] 0 | entospletinib 0.05

FHL2 (UniProt Q14192)
inactive: [1] -0.073 | vorinostat -0.078 | silmitasertib 0.04 | [2] -0.002 | entospletinib -0.007

FDXR isoform 7 (UniProt P22570)
inactive: [1] -0.001 | vorinostat -0.24 | silmitasertib 0.069 | [2] -0.046 | entospletinib 0.046

FLNC (UniProt Q14315)
inactive: [1] 0.009 | vorinostat 0.057 | silmitasertib -0.021 | [2] 0.005 | entospletinib 0.026

FBRSL1, A0A3B3IRR3
inactive: [1] 0.043 | vorinostat 0.142 | silmitasertib -0.013 | [2] 0.069 | entospletinib -0.087

FASN (UniProt P49327)
inactive: [1] -0.02 | vorinostat -0.037 | silmitasertib 0.021 | [2] -0.003 | entospletinib 0.035

FAU (UniProt E9PR30)
active: vorinostat 0.212
inactive: [1] 0.006 | silmitasertib 0.047 | [2] -0.006 | entospletinib 0.016

FASTKD2 (UniProt Q9NYY8)
inactive: [1] 0.008 | silmitasertib 0.044 | [2] 0.025 | entospletinib 0.013
active: vorinostat -0.524

Quoted from the results shown (six entries):
FCHSD1 (UniProt Q86WN1)
inactive: [1] -0.14 | vorinostat 0.021 | silmitasertib 0.008 | [2] 0.063 | entospletinib 0.027

FIGNL1 (UniProt Q6PIW4)
active: vorinostat -0.484
inactive: [1] -0.016 | silmitasertib 0.045 | [2] 0 | entospletinib 0.05

FHL2 (UniProt Q14192)
inactive: [1] -0.073 | vorinostat -0.078 | silmitasertib 0.04 | [2] -0.002 | entospletinib -0.007

FDXR isoform 7 (UniProt P22570)
inactive: [1] -0.001 | vorinostat -0.24 | silmitasertib 0.069 | [2] -0.046 | entospletinib 0.046

FLNC (UniProt Q14315)
inactive: [1] 0.009 | vorinostat 0.057 | silmitasertib -0.021 | [2] 0.005 | entospletinib 0.026

FBRSL1, A0A3B3IRR3
inactive: [1] 0.043 | vorinostat 0.142 | silmitasertib -0.013 | [2] 0.069 | entospletinib -0.087

(cont.)

FARSA (UniProt Q9Y285)
active: vorinostat 0.381
inactive: [1] -0.025 | silmitasertib 0.007 | [2] -0.006 | entospletinib 0.003

FKBP7 (UniProt Q9Y680)
inactive: [1] 0.012 | vorinostat 0.09 | silmitasertib 0.045 | [2] -0.014 | entospletinib -0.018

FEZ2 isoform 2 (UniProt Q9UHY8)
inactive: [1] 0.027 | vorinostat -0.003 | silmitasertib 0.048 | [2] 0.027 | entospletinib 0.011

FBXL12 (UniProt Q9NXK8)
inactive: [1] -0.032 | vorinostat -0.145 | silmitasertib 0.005 | [2] 0.022 | entospletinib -0.02

FAM91A1 (UniProt Q658Y4)
inactive: [1] -0.029 | vorinostat -0.007 | silmitasertib 0.008 | [2] 0.034 | entospletinib 0.019

FARS2 (UniProt O95363)
inactive: [1] 0.045 | vorinostat -0.321 | silmitasertib -0.083 | [2] -0.007 | entospletinib -0.027

FAM98B (UniProt Q52LJ0)
inactive: [1] -0.018 | vorinostat -0.088 | silmitasertib 0.011 | [2] -0.017 | entospletinib 0.031

FKBP2 (UniProt P26885)
inactive: [1] 0.014 | vorinostat 0.146 | silmitasertib -0.027 | [2] 0.072 | entospletinib 0.013

FBLL1 (UniProt A6NHQ2)
inactive: [1] 0.006 | vorinostat 0.094 | silmitasertib 0.034 | [2] -0.017 | entospletinib -0.014

FKRP (UniProt Q9H9S5)
inactive: [1] -0.008 | vorinostat 0.077 | silmitasertib -0.019 | [2] -0.013 | entospletinib -0.034

FCHO2 (UniProt Q0JRZ9)
inactive: [1] -0.037 | vorinostat -0.028 | silmitasertib -0.011 | [2] 0.018 | entospletinib -0.027

FERMT3 (UniProt Q86UX7)
inactive: [1] 0.001 | vorinostat -0.034 | silmitasertib -0.001 | [2] 0.002 | entospletinib -0.003

FIBP (UniProt O43427)
inactive: [1] -0.049 | vorinostat -0.006 | silmitasertib 0.119 | [2] -0.02 | entospletinib -0.049
